Reference: PubChem BioAssay AID493246 (Drosophila RNAi Screening Center, 2011)
The deposit covers about 21,000 reagents; below is an unselected part of those that have a named target and a result. Over the whole deposit, 429 (2%) got an active call. 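Values are raw and not normalised between plates; calls rest on per-plate z-scores that were not deposited.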 Unmarked entries are inactive. No sequences are given here. The record does not give: the amount of reagent, the time to read-out.

- Screen: 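Identify essential fly genes by loss of cell viability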 (primary screen)
- Cells: Drosophila Kc and S2R+ cells
- Reagents: long dsRNA against Drosophila genes
- Measured: 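Cell number per well after knock-down, printed as raw plate values; calls were based on per-plate z-scores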
- Scale: Kc cell number and S2R+ cell number: higher = more cells remaining
- Rule for the call: 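Active when the per-plate z-score of cell number is 3 or more in the direction of fewer cells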

| target gene | dsRNA | Kc cell number, rep 1 | Kc cell number, rep 2 | S2R+ cell number, rep 1 | S2R+ cell number, rep 2 |
| --- | --- | --- | --- | --- | --- |
| Gel (GeneID 46008) | DRSC12350 | 1.73e6 | 1.67e6 | 1.26e6 | 1.36e6 |
| Patj (GeneID 44100) | DRSC08712 | 1.32e6 | 1.35e6 | 1.20e6 | 1.14e6 |
| CG10866 (GeneID 38461) | DRSC08171 | 1.35e6 | 1.23e6 | 1.03e6 | 1.18e6 |
| CG18327 (GeneID 36567) | DRSC06722 | 1.73e6 | 1.70e6 | 1.33e6 | 1.40e6 |
| CG14488 (GeneID 37030) | DRSC06460 | 1.86e6 | 1.78e6 | 1.32e6 | 1.58e6 |
| Prx6a (GeneID 33493) | DRSC00565 | 1.37e6 | 1.36e6 | 7.71e5 | 8.98e5 |
| Nha1 (GeneID 33961) | DRSC02109 | 1.38e6 | 1.48e6 | 5.11e5 | 2.54e5 |
| CG5569 (GeneID 37783) | DRSC04514 | 1.60e6 | 1.60e6 | 1.20e6 | 1.30e6 |
| CG33116 (GeneID 326259) | DRSC02045 | 1.37e6 | 1.55e6 | 1.19e6 | 1.24e6 |
| Fkbp39 (GeneID 41860) | DRSC16667 | 1.61e6 | 1.71e6 | 1.25e6 | 1.30e6 |
| CG17304 (retired record) (GeneID 41796) | DRSC15222 | 1.35e6 | 1.46e6 | 8.84e5 | 9.82e5 |
| CG32695 (GeneID 31918) | DRSC17975 | 1.86e6 | 1.92e6 | 1.12e6 | 1.30e6 |
| CG15263 (GeneID 34898) | DRSC01974 | 1.54e6 | 1.58e6 | 1.24e6 | 1.35e6 |
| stck (GeneID 40999) | DRSC17070 | 1.55e6 | 1.65e6 | 1.23e6 | 1.32e6 |
| Cpr47Ef (GeneID 36194) | DRSC06336 | 1.71e6 | 1.76e6 | 1.23e6 | 1.34e6 |
| Syt14 (GeneID 40544) | DRSC12331 | 1.39e6 | 1.49e6 | 1.27e6 | 1.30e6 |
| CG7202 (GeneID 40376) | DRSC11818 | 1.46e6 | 1.49e6 | 1.34e6 | 1.43e6 |
| ccb (GeneID 33096) | DRSC20501 | 1.58e6 | 1.59e6 | 1.13e6 | 1.26e6 |
| l(3)04053 (GeneID 46158) | DRSC11640 | 1.37e6 | 1.40e6 | 1.02e6 | 1.17e6 |
| Cka (GeneID 34096) | DRSC03476 | 1.68e6 | 1.80e6 | 1.14e6 | 1.31e6 |
| RhoGAP93B (GeneID 42496) | DRSC15488 | 1.29e6 | 1.25e6 | 1.19e6 | 1.24e6 |
| su(Hw) (GeneID 41740) | DRSC17074 | 1.45e6 | 1.52e6 | 1.19e6 | 1.26e6 |
| CG41020 (retired record) (GeneID 5740564) | DRSC20866 | 1.25e6 | 1.52e6 | 1.16e6 | 1.13e6 |
| CG3598 (GeneID 31283) | DRSC18471 | 1.50e6 | 1.52e6 | 1.05e6 | 1.14e6 |
| CG14085 (GeneID 40099) | DRSC10089 | 1.46e6 | 1.72e6 | 1.22e6 | 1.34e6 |
| Ns2 (GeneID 36989) | DRSC06993 | 1.16e6 | 1.30e6 | 1.02e6 | 9.71e5 |
| CG31528 (GeneID 318785) | DRSC12003 | 1.30e6 | 1.42e6 | 1.09e6 | 1.28e6 |
| Cyp18a1 (GeneID 32858) | DRSC20235 | 1.50e6 | 1.57e6 | 1.01e6 | 1.15e6 |
| CG11912 (GeneID 33205) | DRSC00332 | 1.21e6 | 1.42e6 | 1.06e6 | 1.04e6 |
| Spn100A (GeneID 43642) | DRSC14596 | 5.50e5 | – | 8.17e5 | – |
| zetaTry (GeneID 36216) | DRSC07720 | 1.52e6 | 1.49e6 | 1.17e6 | 1.29e6 |
| MESK2 (GeneID 37451) | DRSC04258 | 1.54e6 | 1.65e6 | 1.27e6 | 3.12e5 |
| CG1421 (GeneID 35432) | DRSC03707 | 1.44e6 | 1.57e6 | 1.22e6 | 3.06e5 |
| comr (GeneID 37492) | DRSC04138 | 1.47e6 | 1.62e6 | 1.32e6 | 4.43e5 |
| drosha (GeneID 35747) | DRSC07607 | 1.36e6 | 1.47e6 | 9.37e5 | 8.47e5 |
| CG31142 (GeneID 251610) | DRSC13647 | 1.47e6 | 1.62e6 | 1.11e6 | 1.07e6 |
| CG4842 (GeneID 39817) | DRSC10453 | 1.63e6 | 1.79e6 | 1.22e6 | 1.40e6 |
| CG30432 (GeneID 246611) | DRSC04833 | 1.50e6 | 1.51e6 | 9.68e5 | 1.08e6 |
| CG31128 (GeneID 318601) | DRSC13675 | 1.21e6 | 1.56e6 | 1.09e6 | 1.14e6 |
| CG13086 (GeneID 35208) | DRSC02190 | 1.86e6 | 1.90e6 | 1.29e6 | 2.82e5 |
| Nup43 (GeneID 42209) | DRSC16279 | 1.36e6 | 1.49e6 | 9.79e5 | 1.00e6 |
| qvr (GeneID 2768718) | DRSC05280 | 1.49e6 | 1.47e6 | 1.04e6 | 1.16e6 |
| pds5 (GeneID 36286) | DRSC06670 | 1.35e6 | 1.36e6 | 1.12e6 | 1.17e6 |
| wmd (GeneID 37727) | DRSC04436 | 1.39e6 | 1.44e6 | 1.16e6 | 1.25e6 |
| spn-F (GeneID 43700) | DRSC14475 | 4.11e5 | – | 6.54e5 | – |
| CG7320 (GeneID 40010) | DRSC10810 | 1.32e6 | 1.47e6 | 1.26e6 | 1.34e6 |
| Rab9 (GeneID 35221) | DRSC03281 | 1.50e6 | 1.67e6 | 1.43e6 | 3.78e5 |
| Lrt (GeneID 37342) | DRSC06045 | 1.47e6 | 1.39e6 | 9.82e5 | 1.22e6 |
| Faf2 (GeneID 35129) | DRSC03325 | 1.23e6 | 1.47e6 | 1.23e6 | 1.20e6 |
| CG7231 (GeneID 34086) | DRSC03034 | 1.55e6 | 1.59e6 | 1.10e6 | 1.26e6 |
| CG32564 (GeneID 326222) | DRSC19933 | 1.56e6 | 1.55e6 | 1.13e6 | 1.25e6 |
| BTBD9 (GeneID 32000) | DRSC18148 | 1.57e6 | 1.49e6 | 9.95e5 | 1.11e6 |
| CG4945 (GeneID 36850) | DRSC06904 | 1.33e6 | 1.38e6 | 1.20e6 | 1.26e6 |
| CG11267 (GeneID 39476) | DRSC09833 | 1.47e6 | 1.75e6 | 1.39e6 | 1.64e6 |
| CG5819 (GeneID 37547) | DRSC04520 | 1.48e6 | 1.74e6 | 1.40e6 | 4.70e5 |
| Lamtor5 (GeneID 31137) | DRSC18491 | 1.51e6 | 1.55e6 | 1.07e6 | 1.18e6 |
| CG44422 (GeneID 32063) | DRSC18885 | 1.49e6 | 1.77e6 | 1.18e6 | 1.28e6 |
| CG44422 (GeneID 32063) | DRSC19380 | 1.91e6 | 1.82e6 | 1.12e6 | 1.28e6 |
| CG44422 (GeneID 32063) | DRSC19480 | 1.74e6 | 1.77e6 | 1.03e6 | 1.23e6 |

Targets listed so far whose gene name starts with P or p:
| target gene | dsRNA | Kc cell number, rep 1 | Kc cell number, rep 2 | S2R+ cell number, rep 1 | S2R+ cell number, rep 2 |
| --- | --- | --- | --- | --- | --- |
| Patj (GeneID 44100) | DRSC08712 | 1.32e6 | 1.35e6 | 1.20e6 | 1.14e6 |
| Prx6a (GeneID 33493) | DRSC00565 | 1.37e6 | 1.36e6 | 7.71e5 | 8.98e5 |
| pds5 (GeneID 36286) | DRSC06670 | 1.35e6 | 1.36e6 | 1.12e6 | 1.17e6 |
